Measurements taken from the supplement of paper PMC8728848.
The list shows a part of the results.

Assays:
Assay in all cases: glycan array binding signal (z-score within array); higher = stronger binding
Settings in all cases: glycan notation: IUPAC condensed, linker removed
[1] = biological target: Man(b1-4)GlcNAc
How it was run: (§1)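 Glycan array data were curated from 3228 arrays in the Consortium for Functional Glycomics database and kept only where the protein sequence was available. Glycan names were converted to IUPAC-condensed notation, and columns mapping to the same glycan were averaged. The binding signal is a within-array Z-score, averaged across arrays of the same protein sequence at different concentrations or buffers and across linkers. Negative Z-scores can be read as non-binding.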

[2] = biological target: Neu5Ac(a2-3)Gal
How it was run: as §1

[3] = biological target: Neu5Ac(a2-3)Gal(b1-3)GalNAc
How it was run: as §1

[4] = biological target: Neu5Ac(a2-3)Gal(b1-3)GalNAc(b1-3)Gal(a1-4)Gal(b1-4)Glc
How it was run: as §1

[5] = biological target: Neu5Ac(a2-3)Gal(b1-3)GalNAc(b1-4)[Neu5Ac(a2-3)]Gal(b1-4)Glc
How it was run: as §1

[6] = biological target: Neu5Ac(a2-3)Gal(b1-3)GalNAc6S
How it was run: as §1

[7] = biological target: Neu5Ac(a2-3)Gal(b1-3)GlcNAc
How it was run: as §1

[8] = biological target: Neu5Ac(a2-3)Gal(b1-3)GlcNAc(b1-3)Gal(b1-3)GlcNAc
How it was run: as §1

[9] = biological target: Neu5Ac(a2-3)Gal(b1-3)GlcNAc(b1-3)Gal(b1-4)GlcNAc
How it was run: as §1

[10] = biological target: Neu5Ac(a2-3)Gal(b1-3)GlcNAc6S
How it was run: as §1

[11] = biological target: Neu5Ac(a2-3)Gal(b1-3)[Fuc(a1-4)]GlcNAc
How it was run: as §1

[12] = biological target: Neu5Ac(a2-3)Gal(b1-3)[Fuc(a1-4)]GlcNAc(b1-3)Gal(b1-4)[Fuc(a1-3)]GlcNAc
How it was run: as §1

[13] = biological target: Neu5Ac(a2-3)Gal(b1-3)[Neu5Ac(a2-3)Gal(b1-4)]GlcNAc
How it was run: as §1

[14] = biological target: Neu5Ac(a2-3)Gal(b1-3)[Neu5Ac(a2-6)]GalNAc
How it was run: as §1

[15] = biological target: Neu5Ac(a2-3)Gal(b1-4)Glc
How it was run: as §1

[16] = biological target: Neu5Ac(a2-3)Gal(b1-4)GlcNAc
How it was run: as §1

[17] = biological target: Neu5Ac(a2-3)Gal(b1-4)GlcNAc(b1-3)Gal(b1-3)GlcNAc
How it was run: as §1

[18] = biological target: Neu5Ac(a2-3)Gal(b1-4)GlcNAc(b1-3)Gal(b1-4)GlcNAc
How it was run: as §1

[19] = biological target: Neu5Ac(a2-3)Gal(b1-4)GlcNAc(b1-3)Gal(b1-4)GlcNAc(b1-3)Gal(b1-4)GlcNAc
How it was run: as §1

[20] = biological target: Neu5Ac(a2-3)Gal(b1-4)GlcNAc(b1-3)Gal(b1-4)[Fuc(a1-3)]GlcNAc
How it was run: as §1

[21] = biological target: Neu5Ac(a2-3)Gal(b1-4)GlcNAc(b1-6)[Gal(b1-3)]GalNAc
How it was run: as §1

[22] = biological target: Neu5Ac(a2-3)Gal(b1-4)GlcNAc6S
How it was run: as §1

[23] = biological target: Neu5Ac(a2-3)Gal(b1-4)[Fuc(a1-3)]GlcNAc
How it was run: as §1

[24] = biological target: Neu5Ac(a2-3)Gal(b1-4)[Fuc(a1-3)]GlcNAc(b1-3)Gal
How it was run: as §1

[25] = biological target: Neu5Ac(a2-3)Gal(b1-4)[Fuc(a1-3)]GlcNAc(b1-3)Gal(b1-4)GlcNAc
How it was run: as §1

[26] = biological target: Neu5Ac(a2-3)Gal(b1-4)[Fuc(a1-3)]GlcNAc(b1-3)Gal(b1-4)[Fuc(a1-3)]GlcNAc(b1-3)Gal(b1-4)[Fuc(a1-3)]GlcNAc
How it was run: as §1

[27] = biological target: Neu5Ac(a2-3)Gal(b1-4)[Fuc(a1-3)]GlcNAc6S
How it was run: as §1

[28] = biological target: Neu5Ac(a2-3)Gal6S(b1-4)GlcNAc
How it was run: as §1

[29] = biological target: Neu5Ac(a2-3)Gal6S(b1-4)[Fuc(a1-3)]GlcNAc
How it was run: as §1

[30] = biological target: Neu5Ac(a2-3)GalNAc
How it was run: as §1

[31] = biological target: Neu5Ac(a2-3)GalNAc(b1-4)GlcNAc
How it was run: as §1

[32] = biological target: Neu5Ac(a2-3)[GalNAc(b1-4)]Gal(b1-4)Glc
How it was run: as §1

[33] = biological target: Neu5Ac(a2-3)[GalNAc(b1-4)]Gal(b1-4)GlcNAc
How it was run: as §1

[34] = biological target: Neu5Ac(a2-3)[Neu5Ac(a2-6)]GalNAc
How it was run: as §1

[35] = biological target: Neu5Ac(a2-6)Gal(b1-4)GlcNAc
How it was run: as §1

[36] = biological target: Neu5Ac(a2-6)Gal(b1-4)GlcNAc(b1-2)Man(a1-3)[Neu5Ac(a2-6)Gal(b1-4)GlcNAc(b1-2)Man(a1-6)]Man(b1-4)GlcNAc(b1-4)GlcNAc
How it was run: as §1

[37] = biological target: Neu5Ac(a2-6)Gal(b1-4)GlcNAc(b1-3)Gal(b1-4)GlcNAc
How it was run: as §1

[38] = biological target: Neu5Ac(a2-6)Gal(b1-4)GlcNAc(b1-3)Gal(b1-4)[Fuc(a1-3)]GlcNAc(b1-3)Gal(b1-4)[Fuc(a1-3)]GlcNAc
How it was run: as §1

[39] = biological target: Neu5Ac(a2-6)Gal(b1-4)GlcNAc6S
How it was run: as §1

[40] = biological target: Neu5Ac(a2-6)GalNAc
How it was run: as §1

[41] = biological target: Neu5Ac(a2-6)GalNAc(b1-4)GlcNAc
How it was run: as §1

[42] = biological target: Neu5Ac(a2-8)Neu5Ac
How it was run: as §1

[43] = biological target: Neu5Ac(a2-8)Neu5Ac(a2-3)Gal(b1-4)Glc
How it was run: as §1

[44] = biological target: Neu5Ac(a2-8)Neu5Ac(a2-3)[GalNAc(b1-4)]Gal(b1-4)Glc
How it was run: as §1

[45] = biological target: Neu5Ac(a2-8)Neu5Ac(a2-8)Neu5Ac
How it was run: as §1

[46] = biological target: Neu5Ac(a2-8)Neu5Ac(a2-8)Neu5Ac(a2-3)Gal(b1-4)Glc
How it was run: as §1

[47] = biological target: Neu5Ac(a2-8)Neu5Ac(a2-8)Neu5Ac(a2-3)[GalNAc(b1-4)]Gal(b1-4)Glc
How it was run: as §1

[48] = biological target: Neu5Ac(a2-8)Neu5Ac(a2-8)Neu5Ac(a2-8)Neu5Ac(a2-3)[GalNAc(b1-4)]Gal(b1-4)Glc
How it was run: as §1

[49] = biological target: Neu5Ac9Ac(a2-6)Gal(b1-4)GlcNAc
How it was run: as §1

[50] = biological target: Neu5Gc(a2-3)Gal(b1-3)GlcNAc
How it was run: as §1

[51] = biological target: Neu5Gc(a2-3)Gal(b1-3)[Fuc(a1-4)]GlcNAc
How it was run: as §1

[52] = biological target: Neu5Gc(a2-3)Gal(b1-4)Glc
How it was run: as §1

[53] = biological target: Neu5Gc(a2-3)Gal(b1-4)GlcNAc
How it was run: as §1

[54] = biological target: Neu5Gc(a2-3)Gal(b1-4)[Fuc(a1-4)]GlcNAc
How it was run: as §1

[55] = biological target: Neu5Gc(a2-6)Gal(b1-4)GlcNAc
How it was run: as §1

[56] = biological target: Neu5Gc(a2-6)GalNAc
How it was run: as §1

B1: NKp30 (Homo sapiens), O14931 (protein)
chain: LWVSQPPEIRTLEGSSAFLPCSFNASQGRLAIGSVTWFRDEVVPGKEVRNGTPEFRGRLAPLASSRFLHDHQAELHIRDVRGHDASIYVCRVEVLGLGVGTGNGTRLVVEKEHPQLG
Q: Which results are given for B1?
A: glycan array binding signal (z-score) [1]: -0.69; glycan array binding signal (z-score) [2]: -0.389; glycan array binding signal (z-score) [3]: -0.805; glycan array binding signal (z-score) [4]: 0; glycan array binding signal (z-score) [5]: 0.29; glycan array binding signal (z-score) [6]: 0.003; glycan array binding signal (z-score) [7]: -0.634; glycan array binding signal (z-score) [8]: 0.554; glycan array binding signal (z-score) [9]: -0.764; glycan array binding signal (z-score) [10]: 0.205; glycan array binding signal (z-score) [11]: -0.652; glycan array binding signal (z-score) [12]: -0.537; glycan array binding signal (z-score) [13]: 0.776; glycan array binding signal (z-score) [14]: -0.06; glycan array binding signal (z-score) [15]: 0.198; glycan array binding signal (z-score) [16]: 0.028; glycan array binding signal (z-score) [17]: 1.11; glycan array binding signal (z-score) [18]: 0.237; glycan array binding signal (z-score) [19]: 0.41; glycan array binding signal (z-score) [20]: 0.561; glycan array binding signal (z-score) [21]: 2.26; glycan array binding signal (z-score) [22]: 0.308; glycan array binding signal (z-score) [23]: -0.128; glycan array binding signal (z-score) [24]: 0.518; glycan array binding signal (z-score) [25]: -0.147; glycan array binding signal (z-score) [26]: 0.461; glycan array binding signal (z-score) [27]: 0.391; glycan array binding signal (z-score) [28]: 0.548; glycan array binding signal (z-score) [29]: 0.516; glycan array binding signal (z-score) [30]: -0.59; glycan array binding signal (z-score) [31]: -0.301; glycan array binding signal (z-score) [32]: -0.062; glycan array binding signal (z-score) [33]: -0.354; glycan array binding signal (z-score) [34]: -0.269; glycan array binding signal (z-score) [35]: -0.409; glycan array binding signal (z-score) [36]: -0.02; glycan array binding signal (z-score) [37]: 0.506; glycan array binding signal (z-score) [38]: -0.472; glycan array binding signal (z-score) [39]: 1.26; glycan array binding signal (z-score) [40]: -0.787; glycan array binding signal (z-score) [41]: -0.355; glycan array binding signal (z-score) [42]: -0.006; glycan array binding signal (z-score) [43]: -0.378; glycan array binding signal (z-score) [44]: -0.18; glycan array binding signal (z-score) [45]: 0.13; glycan array binding signal (z-score) [46]: 0.125; glycan array binding signal (z-score) [47]: -0.186; glycan array binding signal (z-score) [48]: 0.661; glycan array binding signal (z-score) [49]: -0.472; glycan array binding signal (z-score) [50]: -0.529; glycan array binding signal (z-score) [51]: -0.522; glycan array binding signal (z-score) [52]: -0.116; glycan array binding signal (z-score) [53]: -0.604; glycan array binding signal (z-score) [54]: -0.262; glycan array binding signal (z-score) [55]: 0.109; glycan array binding signal (z-score) [56]: 0.43
